Measurements reported in PubChem BioAssay AID1224826 (NIAID, 2016)
The whole screen tested about 17,000 reagents; below is a part drawn at random. About 1,110 of them (6.6%) count as active. 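Active means lowered or raised reporter signal; replicate intensities are raw and not normalised per plate.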 The numbers tell different reagents against one gene apart. Further read-outs or replicates are left out here.

Assay: 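Knock-downs that raise or lower Tnf reporter signal after endotoxin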 (primary screen)
Cells: RAW264.7 G9 macrophages from mouse bearing reporters for p65 (GFP) and the Tnf promoter (mCherry)
Reagent: siRNA pool against mouse genes, 100 nM
Time to read-out: 16 h of LPS stimulation, after 2 days of siRNA transfection
Conditions: bacterial lipopolysaccharide (Salmonella minnesota R595), 10 ng/ml
Detection: 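Nuclear mCherry signal of the Tnf promoter reporter measured by imaging after background removal, scaled to each plate median and turned into robust z-scores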
Scale: Tnf reporter robust z-score: higher = stronger Tnf promoter reporter signal after LPS
Active means: 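Called active when robust z-score is at most -1.3, matching the median of the Tlr4 knock-down control, or over 3; control wells and wells with under 50 cells never active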
Calls: active = Tnf reporter clearly lowered or raised; inactive = no clear change in Tnf reporter

The first 3 records, to show the layout:
Prl5a1 — Tnf reporter robust z-score = -1.21; fewer than 50 cells in well = enough cells in well; Call = inactive
C1galt1c1 — fewer than 50 cells in well = fewer than 50 cells per well; well left out of calls; Call = inactive
Clcn3 — Tnf reporter robust z-score = -0.72; fewer than 50 cells in well = enough cells in well; Call = inactive

The listing, from the start:
Prl5a1 — Tnf reporter robust z-score = -1.21; fewer than 50 cells in well = enough cells in well; Call = inactive
C1galt1c1 — fewer than 50 cells in well = fewer than 50 cells per well; well left out of calls; Call = inactive
Clcn3 — Tnf reporter robust z-score = -0.72; fewer than 50 cells in well = enough cells in well; Call = inactive
Rhag — Tnf reporter robust z-score = -1.07; fewer than 50 cells in well = enough cells in well; Call = inactive
Hrob — Tnf reporter robust z-score = -0.17; fewer than 50 cells in well = enough cells in well; Call = inactive
Vps18 — Tnf reporter robust z-score = -0.15; fewer than 50 cells in well = enough cells in well; Call = inactive
Pdap1 — Tnf reporter robust z-score = 0.12; fewer than 50 cells in well = enough cells in well; Call = inactive
Or5an10 — Tnf reporter robust z-score = -0.72; fewer than 50 cells in well = enough cells in well; Call = inactive
Or5k1b — Tnf reporter robust z-score = 0.67; fewer than 50 cells in well = enough cells in well; Call = inactive
Zcchc9 — Tnf reporter robust z-score = 1.86; fewer than 50 cells in well = enough cells in well; Call = inactive
Zfp212 — fewer than 50 cells in well = fewer than 50 cells per well; well left out of calls; Call = inactive
Or8k17 — Tnf reporter robust z-score = -0.25; fewer than 50 cells in well = enough cells in well; Call = inactive
Ubr1 — Tnf reporter robust z-score = -0.7; fewer than 50 cells in well = enough cells in well; Call = inactive
Zdhhc6 — fewer than 50 cells in well = fewer than 50 cells per well; well left out of calls; Call = inactive
Mogat2 — Tnf reporter robust z-score = 0.19; fewer than 50 cells in well = enough cells in well; Call = inactive
Letm1 — Tnf reporter robust z-score = 1.8; fewer than 50 cells in well = enough cells in well; Call = inactive
Emx2 — Tnf reporter robust z-score = 0.19; fewer than 50 cells in well = enough cells in well; Call = inactive
Apba2 — Tnf reporter robust z-score = 0.2; fewer than 50 cells in well = enough cells in well; Call = inactive
Bhmt — Tnf reporter robust z-score = -0.33; fewer than 50 cells in well = enough cells in well; Call = inactive
Apbb3 — Tnf reporter robust z-score = 0.2; fewer than 50 cells in well = enough cells in well; Call = inactive
Adcy6 — Tnf reporter robust z-score = -0.36; fewer than 50 cells in well = enough cells in well; Call = inactive
Foxb2 — Tnf reporter robust z-score = 1.39; fewer than 50 cells in well = enough cells in well; Call = inactive
Ppargc1a #1 — Tnf reporter robust z-score = 0.55; fewer than 50 cells in well = enough cells in well; Call = inactive
Ppargc1a #2 — Tnf reporter robust z-score = -1.08; fewer than 50 cells in well = enough cells in well; Call = inactive
Mpv17l2 — fewer than 50 cells in well = fewer than 50 cells per well; well left out of calls; Call = inactive
Taf5l — Tnf reporter robust z-score = 0.34; fewer than 50 cells in well = enough cells in well; Call = inactive
Pramel32 — Tnf reporter robust z-score = -0.18; fewer than 50 cells in well = enough cells in well; Call = inactive
